Test results as given in doi:10.1101/757856.
These are yes or no findings as the source states them, for the method shown. Some entries that bind do so weakly or less than the wild type.

T1: Neurofibromin EF fragment (1821-2818, purified) (human) (UniProt P21359)
T1 sequence: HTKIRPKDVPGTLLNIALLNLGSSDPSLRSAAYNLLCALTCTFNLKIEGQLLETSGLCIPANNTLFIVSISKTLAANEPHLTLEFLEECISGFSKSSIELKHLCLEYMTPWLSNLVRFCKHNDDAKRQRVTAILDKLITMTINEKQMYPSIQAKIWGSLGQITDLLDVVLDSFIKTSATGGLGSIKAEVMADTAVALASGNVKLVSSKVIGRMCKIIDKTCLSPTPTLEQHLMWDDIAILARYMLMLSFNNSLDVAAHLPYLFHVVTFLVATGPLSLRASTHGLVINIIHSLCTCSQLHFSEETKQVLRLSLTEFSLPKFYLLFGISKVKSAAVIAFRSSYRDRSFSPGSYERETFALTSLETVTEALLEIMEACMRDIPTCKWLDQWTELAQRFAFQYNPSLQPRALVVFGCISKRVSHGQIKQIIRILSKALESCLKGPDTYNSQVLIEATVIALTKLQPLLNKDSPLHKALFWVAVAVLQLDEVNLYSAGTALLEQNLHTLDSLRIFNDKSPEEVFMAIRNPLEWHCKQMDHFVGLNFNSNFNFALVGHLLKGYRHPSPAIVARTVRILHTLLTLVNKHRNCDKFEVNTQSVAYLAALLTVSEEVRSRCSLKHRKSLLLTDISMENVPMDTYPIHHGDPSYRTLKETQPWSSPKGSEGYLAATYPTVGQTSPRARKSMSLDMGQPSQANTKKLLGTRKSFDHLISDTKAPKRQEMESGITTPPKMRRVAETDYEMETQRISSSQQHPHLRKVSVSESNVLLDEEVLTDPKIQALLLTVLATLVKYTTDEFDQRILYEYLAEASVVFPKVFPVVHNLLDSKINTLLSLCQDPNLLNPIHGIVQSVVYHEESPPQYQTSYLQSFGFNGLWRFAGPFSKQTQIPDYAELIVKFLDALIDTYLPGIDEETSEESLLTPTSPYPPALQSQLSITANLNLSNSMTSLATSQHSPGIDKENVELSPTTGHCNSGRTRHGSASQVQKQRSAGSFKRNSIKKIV

B1: Neurofibromin EF fragment (1821-2818, purified) (domain or fragment, UniProt P21359-2 1821-2818)
chain: T1 sequence
B2: Neurofibromin D domain (1541-1820) (domain or fragment, UniProt P21359-2 1541-1820)
chain: LNLTSSKFEEFMTRHQVHEKEEFKALKTLSIFYQAGTSKAGNPIFYYVARRFKTGQINGDLLIYHVLLTLKPYYAKPYEIVVDLTHTGPSNRFKTDFLSKWFVVFPGFAYDNVSAVYIYNCNSWVREYTKYHERLLTGLKGSKRLVFIDCPGKLAEHIEHEQQKLPAATLALEEDLKVFHNALKLAHKDTKVSIKVGSTAVQVTSAERTKVLGQSVFLNDIYYASEIEEICLVDENQFTLTIANQGTPLTFMHQECEAIVQSIIHIRTRWELSQPDSIPQ
B3: Neurofibromin GAP-related domain protein 1172-1530 (domain or fragment, UniProt P21359-2 1172-1530)
chain: DLQTRATFMEVLTKILQQGTEFDTLAETVLADRFERLVELVTMMGDQGELPIAMALANVVPCSQWDELARVLVTLFDSRHLLYQLLWNMFSKEVELADSMQTLFRGNSLASKIMTFCFKVYGATYLQKLLDPLLRIVITSSDWQHVSFEVDPTRLEPSESLEENQRNLLQMTEKFFHAIISSSSEFPPQLRSVCHCLYQVVSQRFPQNSIGAVGSAMFLRFINPAIVSPYEAGILDKKPPPRIERGLKLMSKILQSIANHVLFTKEEHMRPFNDFVKSNFDAARRFFLDIASDCPTSDAVNHSLSFISDGNVLALHRLLWNNQEKIGQYLSSNRDHKAVGRRPFDKMATLLAYLGPPEH
B4: Neurofibromin GAP-related domain protein 1198-1530 (domain or fragment, UniProt P21359-2 1198-1530)
chain: ETVLADRFERLVELVTMMGDQGELPIAMALANVVPCSQWDELARVLVTLFDSRHLLYQLLWNMFSKEVELADSMQTLFRGNSLASKIMTFCFKVYGATYLQKLLDPLLRIVITSSDWQHVSFEVDPTRLEPSESLEENQRNLLQMTEKFFHAIISSSSEFPPQLRSVCHCLYQVVSQRFPQNSIGAVGSAMFLRFINPAIVSPYEAGILDKKPPPRIERGLKLMSKILQSIANHVLFTKEEHMRPFNDFVKSNFDAARRFFLDIASDCPTSDAVNHSLSFISDGNVLALHRLLWNNQEKIGQYLSSNRDHKAVGRRPFDKMATLLAYLGPPEH
B5: Neurofibromin GAP-related domain protein 1203-1530 (domain or fragment, UniProt P21359-2 1203-1530)
chain: DRFERLVELVTMMGDQGELPIAMALANVVPCSQWDELARVLVTLFDSRHLLYQLLWNMFSKEVELADSMQTLFRGNSLASKIMTFCFKVYGATYLQKLLDPLLRIVITSSDWQHVSFEVDPTRLEPSESLEENQRNLLQMTEKFFHAIISSSSEFPPQLRSVCHCLYQVVSQRFPQNSIGAVGSAMFLRFINPAIVSPYEAGILDKKPPPRIERGLKLMSKILQSIANHVLFTKEEHMRPFNDFVKSNFDAARRFFLDIASDCPTSDAVNHSLSFISDGNVLALHRLLWNNQEKIGQYLSSNRDHKAVGRRPFDKMATLLAYLGPPEH

Tests used:
[1] = biological target: T1, Neurofibromin EF fragment (1821-2818, purified) (human); test: SEC-MALS
[2] = biological target: T1, Neurofibromin EF fragment (1821-2818, purified) (human); test: SEC
[3] = biological target: Neurofibromin DEF fragment (1541-2818, purified) (human) (UniProt P21359); test: SEC

Binder	binding [1]	binding [2]	binding [3]
B1	binds weakly		
B2		no binding	
B3		no binding	
B4		no binding	no binding
B5		no binding	
